Test results reported in PubChem BioAssay AID2551 (National Center for Advancing Translational Sciences (NCATS), 2010).
About 17,000 (5.5%) of roughly 310,000 compounds were called active. Inconclusive results, whose numbers are uncertain, are shown with a selection of clear calls. Calls come from the whole dose curve; as a rule, active = well fitted inhibition curve with a large enough effect; inconclusive = small, poorly fitted or top-dose-only effect, or effect the other way; inactive = no such curve, though single readings can be large or run the other way. Potencies beside an inconclusive call are fits to weak or partial responses and may not hold up.

By UniProt entry, the sequences of proteins in these tests, tags left out. Where a name states a change or a piece, a line headed by the entry shows the natural chain unless it says otherwise.
UniProt P51450: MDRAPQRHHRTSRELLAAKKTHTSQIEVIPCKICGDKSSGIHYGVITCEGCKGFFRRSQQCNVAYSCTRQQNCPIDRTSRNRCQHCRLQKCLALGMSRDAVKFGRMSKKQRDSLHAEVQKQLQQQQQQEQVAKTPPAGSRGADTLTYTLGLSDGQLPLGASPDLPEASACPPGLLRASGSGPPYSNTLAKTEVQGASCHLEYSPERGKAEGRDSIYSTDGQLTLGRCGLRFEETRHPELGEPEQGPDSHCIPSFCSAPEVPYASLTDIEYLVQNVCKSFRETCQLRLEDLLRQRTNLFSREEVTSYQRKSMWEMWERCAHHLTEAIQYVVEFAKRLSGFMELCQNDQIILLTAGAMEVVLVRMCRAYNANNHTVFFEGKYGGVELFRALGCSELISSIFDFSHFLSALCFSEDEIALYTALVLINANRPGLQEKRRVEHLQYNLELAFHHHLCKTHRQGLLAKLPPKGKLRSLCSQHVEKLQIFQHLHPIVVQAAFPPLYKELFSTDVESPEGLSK

Target: Nuclear receptor ROR-gamma (Mus musculus) (UniProt P51450)
Assay: qHTS for inhibitors of ROR gamma transcriptional activity; note: nearly all actives have a fitted effect of over 60% in size
Settings: Drosophila S2 Gal4-RORgamma UAS-luciferase reporter, 20 h; activity change, negative = inhibition: at 53.6 µM (top of the series)
How it was run: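 ROR gamma transcriptional activity was tracked as Gal4-UAS luciferase output in stably transfected Drosophila Schneider cells, with compound added 1 hr before 700 uM copper sulfate induction and a 20 hr ambient-temperature incubation.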
% is set by controls: 0 for no effect and ±100 for the full control effect; potency is the fitted concentration of half-maximal effect.

Potency, inconclusive:
CCNC(=S)NNC(=O)Cc1ccccc1 35.5 µM [inhibitor, single point]
Cc1ccc(OCC(=O)Nc2ccc3c(c2)nc(CCN2CCOCC2)n3C)cc1 6.31 µM [inhibitor, full curve, poor fit]
Cc1coc(C)c1C(=O)CC1(O)C(=O)N(CCc2ccccc2)c2ccccc21 (stereo not given) 35.5 µM [inhibitor, single point]
COc1ccc(/C=C2\NC(=S)N(CC3CCCO3)C2=O)c(OC)c1C (stereo not given) 22.4 µM [inhibitor, single point]
COC(=O)c1cccc(NC(=O)Cc2coc3cc(OC)ccc23)c1 22.4 µM [activator, single point]
CCN(CC)CCNC(=O)c1ccc(NC(=O)c2c(C)nn(-c3ccc(F)cc3)c2Cl)cc1 2.82 µM [activator, full curve, poor fit]
Cc1ccc(NC(=S)N(CCCN2CCOCC2)Cc2cccs2)c(C)c1 28.2 µM [inhibitor, single point]
Cc1cc2nc3ccc(=[N+](C)C)cc-3sc2cc1N 15.8 µM [inhibitor, single point]
COc1nc(-c2cccs2)cc(-c2ccc(C)cc2)c1C#N 35.5 µM [inhibitor, single point]
CN1CCN(c2ccc(NC(=O)c3ccccc3)cc2)CC1 28.2 µM [inhibitor, single point]
CCN1C/C(=C/c2ccc(N3CCOCC3)cc2)C(=O)/C(=C/c2ccc(N3CCOCC3)cc2)C1 35.5 µM [inhibitor, single point]
CCOc1ccc(N2C(=O)CN(C)C2=S)cc1 3.16 µM [activator, partial curve, poor fit]
COc1cc(OC)c2c(-c3ccccc3)cc(=O)oc2c1C(CCN1CCCC(C)C1)c1ccc(N(C)C)cc1 (stereo not given) 31.6 µM [inhibitor, single point]
Cc1cc(C)c2c(=O)n(CC(=O)NC3CCCC3)sc2n1 20 µM [inhibitor, single point]
Cc1ccc(C#CC[N+]2(CC#Cc3ccc(C)cc3)CCCCC2)cc1 3.98 µM [activator, single point]
CCOC(=O)c1sc(=NC(=O)/C=C/c2cccs2)n(C)c1C 11.2 µM [activator, partial curve]
CCCc1nnc(NC(=O)c2nc(S(=O)(=O)Cc3ccc(C)cc3)ncc2Cl)s1 35.5 µM [inhibitor, single point]
OC(CNCc1ccc(Cl)cc1)(c1ccccc1)c1ccc(F)cc1 (stereo not given) 35.5 µM [inhibitor, single point]
CCOC(=O)c1ccccc1N/C=C/C(=O)c1cccs1 12.6 µM [activator, partial curve]
O=C(CSc1nc2ccccc2o1)Nc1nccs1 28.2 µM [inhibitor, single point]
CCOc1ccc(OCCOc2ncnc3ccccc23)cc1 7.94 µM [activator, partial curve]
O=C(CCNS(=O)(=O)c1ccc(Cl)cc1)N1CCN(Cc2ccccc2)CC1 31.6 µM [activator, single point]
Cn1cccc1-c1nc2ccccc2n1C 2 µM [activator, partial curve, poor fit]
CCCCc1noc2c1/C(=N\O)CC(c1ccccc1)C2 (stereo not given) 11.2 µM [activator, partial curve]
CCCCCCN1N=C(C)C(C(=O)c2ccc(Cl)cc2)C1=O (stereo not given) 28.2 µM [inhibitor, single point]
Cc1ncoc1C(=O)Nc1ncc([N+](=O)[O-])s1 31.6 µM [inhibitor, single point]
Cc1onc(-c2ccccc2Cl)c1C(=O)Nc1nnc(-c2ccc(F)cc2)s1 3.16 µM [inhibitor, single point]
NC(=O)c1ccccc1NC(=S)NC(=O)CCc1ccccc1 14.1 µM [activator, partial curve]

Entries above that have a halogen:
Potency, inconclusive:
CCN(CC)CCNC(=O)c1ccc(NC(=O)c2c(C)nn(-c3ccc(F)cc3)c2Cl)cc1 2.82 µM [activator, full curve, poor fit]
CCCc1nnc(NC(=O)c2nc(S(=O)(=O)Cc3ccc(C)cc3)ncc2Cl)s1 35.5 µM [inhibitor, single point]
OC(CNCc1ccc(Cl)cc1)(c1ccccc1)c1ccc(F)cc1 (stereo not given) 35.5 µM [inhibitor, single point]
O=C(CCNS(=O)(=O)c1ccc(Cl)cc1)N1CCN(Cc2ccccc2)CC1 31.6 µM [activator, single point]
CCCCCCN1N=C(C)C(C(=O)c2ccc(Cl)cc2)C1=O (stereo not given) 28.2 µM [inhibitor, single point]
Cc1onc(-c2ccccc2Cl)c1C(=O)Nc1nnc(-c2ccc(F)cc2)s1 3.16 µM [inhibitor, single point]

Following part.

Potency, active:
CCOC(=O)Cc1cc(=O)n2[nH]cc(-c3ccc(Cl)cc3)c2n1 11.2 µM
Cc1nnc(NC(=O)c2nc(S(=O)(=O)Cc3ccccc3)ncc2Cl)s1 7.94 µM
COc1cc(OC)cc(C(=O)NC(=S)Nc2cc3oc4ccccc4c3cc2OC)c1 1.41 µM
CCOC(=O)c1c(NC(=O)CNC2CCCCC2)sc(C)c1C 1.41 µM
CCC1=NN(C(=O)CCc2ccc3c(c2)OCO3)C(O)(C(F)(F)F)C1 (stereo not given) 11.2 µM
COc1cc2c(cc1OC)C(c1ccccc1)N(C(=O)CCl)CC2 (stereo not given) 25.1 µM
C=CCNC(=S)NNc1nc2c(c(=O)[nH]1)C1(CCCCC1)Cc1ccccc1-2 1 µM
Cc1ccc(NNC(=S)Nc2ccc(C(C)C)cc2)c(C)c1 11.2 µM
COCCNC(=S)N/N=C/c1ccc(-c2ccc([N+](=O)[O-])cc2)o1 4.47 µM
COc1cc(SC#N)ccc1N=Cc1c(C)[nH]n(-c2ccc(Cl)cc2)c1=O 5.62 µM

Sorted by SMILES length (high to low): some entries from above.
Potency, active:
COc1cc(OC)cc(C(=O)NC(=S)Nc2cc3oc4ccccc4c3cc2OC)c1 1.41 µM
CCOC(=O)Cc1cc(=O)n2[nH]cc(-c3ccc(Cl)cc3)c2n1 11.2 µM
CCOC(=O)c1c(NC(=O)CNC2CCCCC2)sc(C)c1C 1.41 µM

Following part:

Potency, inactive:
O=[N+]([O-])c1ccc(Cl)c(CN2CCC(O)CC2)c1
Cc1cc(/C=C(\C#N)C(=O)O)c(C)n1C1CC1
O=C(CSc1nnc(NC(=O)c2c(F)cccc2F)s1)Nc1ccc(F)cc1
COc1ccc(NC(=S)N2CCC(C(=O)c3ccc(C)cc3)CC2)c(OC)c1
O=C(Nc1ccc2c(c1)OCO2)Nc1ccc(Cl)cc1Cl
CN1C(=O)CSc2ccc(NC(=O)N3CCN(c4ccccc4)CC3)cc21

Activity change, negative = inhibition, inactive:
CCOC(c1cc(OC)cc([N+](=O)[O-])c1OC)C(C)C(OC)[C@@H](C)/C=C/CC(=O)OC (stereo not given in full) -10.8% [at 10 µM]
